Some entries share one result that the patent states for a list of compounds.
Legend:
[1] = target: T1, GST-PDZI′+II′ (Grasp55 residues 1 to 208) (Mus musculus, UniProt Q99JX3); assay: HTRF measurement of interaction of biotinylated C-terminal peptides with GST-PDZI′+II′; format: binding, murine; settings: compound at 6.6×10^−5M
T1 construct: and 1 to 208 corresponding respectively to the PDZI′, PDZII′ and PDZI′+II′ constructs; made in house; host or cells: bacteria Rosetta
Experimental: (§1) To refine and extend the results obtained by yeast two hybrid, an Homogenous Time Resolved Fluorescence (HTRF) assay have been set-up to measure interactions of various peptides with recombinant GST proteins corresponding to different regions of Grasp55.
(§2) Briefly, the technique consisted in incubating 18 h at 4° C. the biotinylated-Cterminal peptides (SEQ ID NO: 26 to 34) at the concentration of 1.9*10^−7M with the GST-fusion protein, the terbium-coupled anti-GST antibody (8*10^−10M each) and the d2-coupled streptavidin (4*10^−8M) (both from Cisbio), in 0.1 mL of Hepes 0.05M, NaCl 0.15M BSA 0.1% pH 7.2. In some experiments, competing peptide or chemicals were added to the incubation mix at the indicated concentration. After incubation, microtiter plates (Costar #3693) were red using PolarScan Omega (BMG Labtech) equipped for HTRF measurements. Upon excitation at 320 nm, a 620 nm fluorescence emission is produced by the donor terbium that in turn excites a 665 nm light emission by a Streptavidin-d2 (acceptor) bound to the Biotinylated interacting Peptide if the latter is interacting with the donor. The […] R ratio is obtained and a Delta F is computed as: [(Rsample−RNSB)/RNSB]*100 where RNSB is the Non Specific Background signal determined in incubates where the GST-fusion protein was omitted. […]

[2] = target: T2, GST-PDZI′ (Grasp55 residues 1 to 107) (Mus musculus, UniProt Q99JX3); assay: HTRF measurement of interaction of biotinylated C-terminal peptides with GST-PDZI′; format: binding, murine; settings: compound at 6.6×10^−5M
T2 construct: GST fusion proteins encompassing residues 1 to 107; made in house; host or cells: bacteria Rosetta
Experimental: as §1, §2

Structure (SMILES) | reduction of the signal obtained with GST-PDZI′+II′ and biotinylated JAM-C peptide [1] | reduction of the signal obtained with GST-PDZI′ and biotinylated JAM-C peptide [2]
CCN(CC)C(=S)SSC(=S)N(CC)CC [Disulfiram, 1,1′,1″,1′″-[disulfanediylbis(carbonothioylnitrilo)]tetraethane] | more than 40% | 
O=c1oc2c(O)c(O)cc3c(=O)oc4c(O)c(O)cc1c4c23 [Ellagic acid, 2,3,7,8-Tetrahydroxy-chromeno[5,4,3-cde]chromene-5,10-dione] | more than 40% | more than 40%

— patent US9107936B2, “Antagonists of GRASP55 for use as a medicament” (Institut National de la Sante et de la Recherche Medicale …, priority 2012, dated 2015)
